Assay [1] concerns the target T1, SaDnaI^AAA+ (residues 136-306) (Staphylococcus aureus) (UniProt Q3ZUA6).
T1 sequence: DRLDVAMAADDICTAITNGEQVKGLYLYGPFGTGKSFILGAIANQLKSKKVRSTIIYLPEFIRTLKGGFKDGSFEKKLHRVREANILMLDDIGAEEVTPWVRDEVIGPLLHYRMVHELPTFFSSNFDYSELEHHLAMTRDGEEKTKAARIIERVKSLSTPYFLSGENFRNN
Briefly: fluorescence polarisation; anisotropy-based competition; 20 nM labeled 77ORF104 and 2 µM SaDnaI^AAA+, unlabeled 77ORF104 or mutant titrated; 50 mM HEPES-KOH pH 7.5, 125 mM KCl, 10% glycerol, 5 mM MgCl2, 1 mM DTT; apparent; both purified. For orientation: In fluorescence polarisation assays a small probe gives low polarisation when free and higher when bound to something large.

Assay [2] deals with T2, full-length Staphylococcus aureus DnaI (Staphylococcus aureus) (UniProt Q3ZUA6).
T2 sequence: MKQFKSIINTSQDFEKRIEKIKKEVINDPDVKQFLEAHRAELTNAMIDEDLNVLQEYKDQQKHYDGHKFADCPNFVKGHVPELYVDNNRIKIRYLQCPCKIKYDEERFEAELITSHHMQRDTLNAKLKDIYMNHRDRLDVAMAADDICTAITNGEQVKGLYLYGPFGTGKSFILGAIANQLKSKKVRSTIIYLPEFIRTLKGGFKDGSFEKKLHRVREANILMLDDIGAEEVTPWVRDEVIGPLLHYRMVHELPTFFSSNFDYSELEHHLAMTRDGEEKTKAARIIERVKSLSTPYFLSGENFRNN
Briefly: limited trypsin proteolysis; SaDnaI alone or with 77ORF104, trypsin 30 min at 25°C; 500 mM KCl, 50 mM HEPES-KOH pH 7.5, 10 mM MgCl2, 10% glycerol; SDS-PAGE; both purified.

Assay [3] addresses T3, SeMet-SaDnaI^AAA+ (Staphylococcus aureus) (UniProt Q3ZUA6).
T3 sequence (chain, selenomethionine labeled): T1 sequence
Briefly: crystal structure; ADP•BeF3-bound SaDnaI^AAA+•77ORF104 complex, SeMet SAD, 1.9 Å; complex formed with two-fold excess of 77ORF104; both purified.

Assay [4] concerns the target His6MBP-tagged phage loader 77ORF013 (Staphylococcus bacteriophage 77). Briefly: pull-down; amylose pull-down, His6MBP-tagged protein as bait (10 µM), untagged protein as prey (20 µM); without ATP or nucleotide where stated (Figures 2C, 4C), ATP not told for the other panels; 20 mM HEPES-KOH pH 7.5, 100 mM NaCl, 5 mM MgCl2, 10% glycerol, 1 mM DTT, 25°C; SDS-PAGE; both purified.

Assay [5] addresses His6MBP-77ORF104 (Staphylococcus bacteriophage 77). The assay is described as above.
The target is the same in assay [6]. Briefly: condition: 10 µM His6MBP-tagged and 20 µM untagged protein; pull-down; amylose pull-down, His6MBP-tagged protein as bait (10 µM), untagged protein as prey (20 µM); without ATP or nucleotide where stated (Figures 2C, 4C), ATP not told for the other panels; 20 mM HEPES-KOH pH 7.5, 100 mM NaCl, 5 mM MgCl2, 10% glycerol, 1 mM DTT, 25°C; SDS-PAGE; both purified.

These are yes or no findings as the source states them, for the method shown. For some assays here: Binding can be weak; no strength is given.

Regarding “77ORF104^K39E (Staphylococcus bacteriophage 77)”, in assay [1], the binding entry is “binds”.
Regarding “77ORF104^Δ47–52 (Staphylococcus bacteriophage 77) (domain or fragment)”, in assay [1], the binding entry is recorded as “no binding”.
Consider “phage 77 ORF104 protein (Staphylococcus bacteriophage 77)”, for which the binding entry in assay [2] and in assay [3] was “binds” each time.

B1: SaDnaC replicative helicase (natural protein, Staphylococcus aureus, UniProt Q9AQH7 1-466, looked up)
chain: MDRMYEQNQMPHNNEAEQSVLGSIIIDPELINTTQEVLLPESFYRGAHQHIFRAMMHLNEDNKEIDVVTLMDQLSTEGTLNEAGGPQYLAELSTNVPTTRNVQYYTDIVSKHALKRRLIQTADSIANDGYNDELELDAILSDAERRILELSSSRESDGFKDIRDVLGQVYETAEELDQNSGQTPGIPTGYRDLDQMTAGFNRNDLIILAARPSVGKTAFALNIAQKVATHEDMYTVGIFSLEMGADQLATRMICSSGNVDSNRLRTGTMTEEDWSRFTIAVGKLSRTKIFIDDTPGIRINDLRSKCRRLKQEHGLDMIVIDYLQLIQGSGSRASDNRQQEVSEISRTLKALARELKCPVIALSQLSRGVEQRQDKRPMMSDIRESGSIEQDADIVAFLYRDDYYNRGGDEDDDDDGGFEPQTNDENGEIEIIIAKQRNGPTGTVKLHFMKQYNKFTDIDYAHADMM
notes: Staphylococcus aureus replicative helicase DnaC (a DnaB-family helicase); also called S. aureus DnaC replicative helicase; host helicase; not shown: His6, N-terminal, cleaved; MBP, N-terminal, cleaved
Consider B1, for which the binding entry in assay [4] was “binds”.

B2: SaDnaI^AAA+ (residues 136-306) (domain or fragment, UniProt Q3ZUA6 136-306)
chain: T1 sequence
Turning to B2, the binding result in assay [5] was “binds”.

B3: SaDnaI^CTD (117-306) (domain or fragment, UniProt Q3ZUA6 117-306)
chain: HMQRDTLNAKLKDIYMNHRDRLDVAMAADDICTAITNGEQVKGLYLYGPFGTGKSFILGAIANQLKSKKVRSTIIYLPEFIRTLKGGFKDGSFEKKLHRVREANILMLDDIGAEEVTPWVRDEVIGPLLHYRMVHELPTFFSSNFDYSELEHHLAMTRDGEEKTKAARIIERVKSLSTPYFLSGENFRNN
Regarding B3, in assay [5], the binding result was “binds”.

B4: SaDnaI^NTD (residues 1-117) (domain or fragment, UniProt Q3ZUA6 1-117)
chain: MKQFKSIINTSQDFEKRIEKIKKEVINDPDVKQFLEAHRAELTNAMIDEDLNVLQEYKDQQKHYDGHKFADCPNFVKGHVPELYVDNNRIKIRYLQCPCKIKYDEERFEAELITSHH
With B4, the binding entry in assay [6] was “no binding”.

The values are drawn from publication PMC4887207, “Viral hijacking of a replicative helicase loader and its implications for helicase loading control and phage replication” (eLife, 2016).
